Source: PubChem BioAssay AID602196 (INSERM, 2012)
Shown is one part, drawn at random, of about 23,000 reagents tested. 455 of them (2%) were called active. 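Active includes both protection and sensitisation; some change values fall well beyond the stated -50 to +50 range.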 A number with no mark means an inactive call. Not all columns of the deposit are shown. The record does not give: the amount of reagent.

Test: 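Modifiers of cisplatin sensitivity in A549 cells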
Cells: human A549 lung cancer cells
Reagents: siRNA pair against human genes
Timing: 48 h transfection before cisplatin; time from cisplatin to read-out not stated
Conditions: cisplatin at a dose killing half of control-siRNA cells; exact dose and duration not given
Detection: 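Shift in cisplatin death relative to control siRNA, from -50 (all cells die) to +50 (no cells die); siRNAs harmful on their own scored 0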
Scale: two-siRNA summed score (-2 to +2): higher = both siRNAs protect from cisplatin killing; -2 means both sensitise
Rule for the call: 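siRNAs harmful alone (LDH or WST-1) get 0; others get +1 for less and -1 for more cisplatin killing; genes are active when the two siRNAs give the same sign, summing to ±2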
Meaning of the calls: active = both siRNAs shift cisplatin killing the same way; inactive = no consistent shift, or siRNA harmful alone

gene symbol	two-siRNA summed score (-2 to +2)
AGBL3	0
LOC342931	0
LINC00474	0
NPEPL1	0
PLXNA4	0
NSUN5	0
CREBZF	0
SMG7	0
CDK9	1

Sorted by “two-siRNA summed score (-2 to +2)” (ascending): some entries from above.
gene symbol	two-siRNA summed score (-2 to +2)
PLXNA4	0
NSUN5	0
CREBZF	0

The list goes on:
gene symbol	two-siRNA summed score (-2 to +2)
SLC25A40	1
SF3B2	0
LOC127602	0
CPLX2	0
MYH9	-1
DGCR8	0
LOC391126	0
RRP7A	0
LRFN2	0
FGF10	0
LOC253820	0
DCAF16	0
STX18	-1
LRRC61	0
